In the odorant receptor screen of Mainland et al. (2015):
Several values for one entry are separate records, joined by “and”; a condition that tells them apart may be missing. Equal values may be shown once. Some of the results follow. Each value is one well over the wells without odorant, computed here; the data are noisy.

Key:
Test in all cases: odorant receptor activation (CRE luciferase / Renilla) (fold of no-odor wells); higher = more activation
Conditions in all cases: 100 µM
[1] = system: OR1N2 W23R/V230G/T287M clone 1105
[2] = system: OR1N2 W37R/V244G/T301M clone 1350
OR1N2 clone 1505 = system: OR1N2 clone 1505
[3] = system: OR1Q1 Q24R/I163M clone 1103
OR1S1 clone 1455 = system: OR1S1 clone 1455
OR1S2 I46T clone 1137 = system: OR1S2 I46T clone 1137
OR2A1 clone 1078 = system: OR2A1 clone 1078
OR2A12 clone 1085 = system: OR2A12 clone 1085
OR2A14 Indel clone 1540 = system: OR2A14 Indel clone 1540
OR2A14 clone 1083 = system: OR2A14 clone 1083

SMILES	odorant receptor activation [1]	odorant receptor activation [2]	odorant receptor activation (OR1N2 clone 1505)	odorant receptor activation [3]	odorant receptor activation (OR1S1 clone 1455)	odorant receptor activation (OR1S2 I46T clone 1137)	odorant receptor activation (OR2A1 clone 1078)	odorant receptor activation (OR2A12 clone 1085)	odorant receptor activation (OR2A14 Indel clone 1540)	odorant receptor activation (OR2A14 clone 1083)
CCCCCCCC=CC=O [2-decenal]	7.27	1.45	2.43	23.2	1.08	1.29	4.14	4.18	1.55	5.33
CCCCCCCCC=O [nonyl aldehyde]	1.22	0.983	1.24	0.99	1.41	1.39	1.18	1.09	1.01	1.03
CC(=O)c1ccccc1 [acetophenone]	1.87	1.02 and 0.702	0.945 and 0.729	0.526		1.1	1.64	0.862		0.801
CCCCCCCC=O [octyl aldehyde]	1.19	0.903	1.09	1.4	1.18	1.13	1.14	1.22	0.891	1.29
CC(C)C=O [isobutyraldehyde]	1.39	1.15 and 0.824	1 and 1.12	2.48	0.569	1.46	0.846	1.89	1.05 and 1.12	3.83
O=C1CCCCCCCCCCCC(=O)OCCO1 [ethylene brassylate]	1.85	1.89	1.12	1.58	1.82	2.34	1.03	1.57	1.61	1.44
CC12CCC(C1)C(C)(C)C2=O (configuration not stated) [fenchone]	0.872	1.06	1.07	1.1	0.601	0.99	0.688	0.994	1.24	1.11
CCCCCOC(C)=O [n-amyl acetate]	1.32	0.967 and 0.834	0.673 and 0.832	0.966	1.28	0.572	2.17	1.24		1.53
CC(C)(C)c1ccc(CCC=O)cc1 [bourgeonal]	0.926	0.896	0.927	0.888		0.759	0.835	1.05	0.972	1.18
CC(C)C(=O)O [isobutyric acid]	1.28	1.12 and 0.775	0.903 and 0.947	1.11	0.746	0.941	0.991	0.595	1.02 and 0.814	0.627
CCCCCCOC(=O)CCC [hexyl butyrate]	0.959	1.06 and 0.88	0.873 and 0.834	0.802	1.04	1.08	1.24	0.825	1.2 and 1.16	0.333
CCCC(=O)O [butyric acid]	1.38	1.04	1.16	1.29	1.49	0.862	0.981	1.29	1.07	1.23
C=C(C)C1CCC2=CC(=O)CC(C)C2(C)C1 (configuration not stated) [amyl laurate]					3.14					
COc1cc(C=O)ccc1O [vanillin]	1.03	0.828	1.1	1.06	1.4	1.21	0.955	0.783	0.962	1.12
CC1=NC(C)SC1C (configuration not stated)	2.41	1.14 and 1.04	1.2 and 1.01	0.431		0.689	1.22	1.76		1.11
CC12C=CCC1C1CCC3CC(=O)CCC3(C)C1CC2 (configuration not stated) [androstenone]	3.07	0.89	1.13	12.1		3.72	2.43	1.55	1.04	1.78
O=C1CCCCC1 [Cyclohexanone]	3.32	1.04 and 0.943	0.74 and 0.783	0.87		0.509	1.09	2.28		1.44
CCCCCCC=O [heptaldehyde]	2.01 and 0.944				0.823		1.94 and 1.45	2.05 and 0.791	1.16 and 1.35	0.812 and 0.52
COC(=O)c1ccccc1 [methyl benzoate]	3.37	1.14 and 0.783	0.667 and 0.948	1.02		1.06	1.98	2.06		0.705
CC(C)=CCCC(C)=CC=O [citral]	1.28	1.12	0.884	1.1	1.08	0.986	0.926	1.28	1.09	1.08
CCCCCC(C)=O [2-heptanone]	0.752	0.893 and 0.603	0.97 and 0.686	0.503		1.2	0.568	1.07		0.543
CC(C)(O)CCCC1=CCC(C=O)CC1 (configuration not stated) [lyral]					1.41					
CC=Cc1ccc(O)c(OC)c1 [isoeugenol]	0.955	1.97 and 1.6	1.54 and 2.79	2.02	2.46	1.65	0.964	1.5	0.988 and 2.06	0.61
COc1cc(C)ccc1O [2-methoxy-4-methylphenol]	3.17	1.07	0.987	11.4	0.819	0.9	2.27	1.6	0.97	1.35
CC12C=CCC1C1CCC3=CC(=O)CCC3(C)C1CC2 (configuration not stated) [androstadienone]	1.46	1.17 and 0.901	0.851 and 1.14	1.56		1.12	4.65	4.82	0.771 and 1.79	4.35
C=CCc1ccc(O)c(OC)c1 [eugenol]	2.27 and 1.27	2.38 and 0.968 and 1.4	2.53 and 0.943 and 1.03		1.1	2.65 and 1.62	1.39 and 1.27	2.67 and 1.26	1.46	1.59 and 1.51
CC1=CCC(C(C)(C)O)CC1 (configuration not stated) [terpineol]	1.54	0.605	0.916	1.31	1.11	1.85	0.939	0.877	0.873	1.25
C=C(C)C1CC=C(C)C(=O)C1 (configuration not stated) [r-carvone]	0.922	0.521	0.995	1.2	0.854	1.17	0.987	0.878	0.795	1.06
CC/C=C\CCO [cis-3-hexen-1-ol]	1.01	1.15	1.03	0.974	1.19	0.955	0.896	1.03	0.906	1.19
CC1COCc2cc3c(cc21)C(C)(C)C(C)C3(C)C (configuration not stated) [galaxolide]	4.61	5.16 and 3.32	6.34 and 3.54	4.38	1.42 and 1.27	4.84	1.99	2.78		1.16

Part of the list above, set out differently.
SMILES | odorant receptor activation [1] | odorant receptor activation [2] | odorant receptor activation (OR1N2 clone 1505) | odorant receptor activation [3] | odorant receptor activation (OR1S1 clone 1455) | odorant receptor activation (OR1S2 I46T clone 1137) | odorant receptor activation (OR2A1 clone 1078) | odorant receptor activation (OR2A12 clone 1085) | odorant receptor activation (OR2A14 Indel clone 1540) | odorant receptor activation (OR2A14 clone 1083)
CC12C=CCC1C1CCC3CC(=O)CCC3(C)C1CC2 (configuration not stated) [androstenone] | 3.07 | 0.89 | 1.13 | 12.1 |  | 3.72 | 2.43 | 1.55 | 1.04 | 1.78
O=C1CCCCC1 [Cyclohexanone] | 3.32 | 1.04 and 0.943 | 0.74 and 0.783 | 0.87 |  | 0.509 | 1.09 | 2.28 |  | 1.44
